# According to patent US11207423B2 (Northwestern University, priority 2016, dated 2021):
# Assay: general procedure: Fmoc solid-phase peptide synthesis; Rink Amide MBHA resin; HATU/DIPEA
# Settings: whole synthesis, TFA salts
substance,measurement,value
3-pyrrol-O-adipic-N-Sar-Tyr-Asn-Leu-Tyr-Arg-Val-Arg-Ser-amide,isolated yield,26%
